Measured values published in the supplement of paper PMC12823440, “Inhibitors supercharge kinase turnover through native proteolytic circuits” (Nature, 2025).
Where a name gives a salt, the structure may show the parent alone. This is one part of the list. The calls rarely recur for the same compound in another form.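 Kinases were expressed as nanoluciferase fusions in K562 cells and luminescence was read every 4 h between 2 and 18 h as percent of control, DMSO set to 100% and a positive control to 0%. A time point counts as decreased when the signal drops significantly (2 sigma). The hit call is the authors' own, does not follow from the count of time points alone, and its rule is not shown.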

The chains behind the UniProt entries cited, without tags or fusion partners. Where a name states a change or a piece, a line headed by the entry shows the natural chain unless it says otherwise.
UniProt O75460: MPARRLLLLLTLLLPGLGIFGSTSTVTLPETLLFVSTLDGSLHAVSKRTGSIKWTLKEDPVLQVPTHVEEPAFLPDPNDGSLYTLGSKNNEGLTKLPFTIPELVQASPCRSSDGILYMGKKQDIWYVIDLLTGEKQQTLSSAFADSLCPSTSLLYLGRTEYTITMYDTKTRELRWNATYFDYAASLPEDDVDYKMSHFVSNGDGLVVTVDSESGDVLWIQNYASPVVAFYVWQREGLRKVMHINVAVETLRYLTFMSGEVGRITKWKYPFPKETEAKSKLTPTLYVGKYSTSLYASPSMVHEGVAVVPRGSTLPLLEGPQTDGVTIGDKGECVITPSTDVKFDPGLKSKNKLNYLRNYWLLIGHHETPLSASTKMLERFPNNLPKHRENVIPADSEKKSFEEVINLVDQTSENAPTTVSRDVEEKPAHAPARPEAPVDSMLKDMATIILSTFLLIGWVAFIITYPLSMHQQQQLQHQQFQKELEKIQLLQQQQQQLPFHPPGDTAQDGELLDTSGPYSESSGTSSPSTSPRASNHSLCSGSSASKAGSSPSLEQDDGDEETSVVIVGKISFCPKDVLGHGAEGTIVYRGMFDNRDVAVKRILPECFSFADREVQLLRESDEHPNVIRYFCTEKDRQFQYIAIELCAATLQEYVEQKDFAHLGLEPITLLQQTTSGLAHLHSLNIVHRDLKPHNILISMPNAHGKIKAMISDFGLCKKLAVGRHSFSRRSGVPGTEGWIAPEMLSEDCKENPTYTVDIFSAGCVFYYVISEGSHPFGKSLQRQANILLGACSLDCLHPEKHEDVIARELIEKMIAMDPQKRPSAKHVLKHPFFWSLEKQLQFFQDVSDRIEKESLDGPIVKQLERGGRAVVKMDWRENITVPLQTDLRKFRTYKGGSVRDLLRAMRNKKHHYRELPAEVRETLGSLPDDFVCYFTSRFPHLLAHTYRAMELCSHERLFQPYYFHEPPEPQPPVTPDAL
UniProt P11362, whole entry, looked up: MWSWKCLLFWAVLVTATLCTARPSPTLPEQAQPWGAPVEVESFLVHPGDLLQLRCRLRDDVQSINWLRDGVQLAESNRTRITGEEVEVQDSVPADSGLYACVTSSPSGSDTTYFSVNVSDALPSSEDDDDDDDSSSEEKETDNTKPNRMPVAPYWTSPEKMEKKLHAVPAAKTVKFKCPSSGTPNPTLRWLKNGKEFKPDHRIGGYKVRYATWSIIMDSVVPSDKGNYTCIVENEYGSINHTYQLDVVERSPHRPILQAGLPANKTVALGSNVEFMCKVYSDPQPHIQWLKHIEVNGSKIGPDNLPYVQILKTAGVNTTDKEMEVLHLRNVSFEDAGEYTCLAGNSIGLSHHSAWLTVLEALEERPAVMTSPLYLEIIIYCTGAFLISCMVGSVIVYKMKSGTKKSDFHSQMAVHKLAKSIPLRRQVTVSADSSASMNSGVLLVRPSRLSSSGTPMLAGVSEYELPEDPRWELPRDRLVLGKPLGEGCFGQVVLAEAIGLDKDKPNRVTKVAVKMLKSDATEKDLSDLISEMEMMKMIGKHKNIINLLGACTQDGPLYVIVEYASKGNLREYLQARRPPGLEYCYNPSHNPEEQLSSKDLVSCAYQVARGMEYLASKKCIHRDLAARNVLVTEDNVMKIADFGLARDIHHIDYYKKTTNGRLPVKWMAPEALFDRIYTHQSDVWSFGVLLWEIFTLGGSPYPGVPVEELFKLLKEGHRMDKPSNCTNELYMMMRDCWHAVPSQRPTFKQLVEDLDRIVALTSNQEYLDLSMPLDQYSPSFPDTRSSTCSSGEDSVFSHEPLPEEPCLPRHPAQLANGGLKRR
UniProt P21802, whole entry, looked up: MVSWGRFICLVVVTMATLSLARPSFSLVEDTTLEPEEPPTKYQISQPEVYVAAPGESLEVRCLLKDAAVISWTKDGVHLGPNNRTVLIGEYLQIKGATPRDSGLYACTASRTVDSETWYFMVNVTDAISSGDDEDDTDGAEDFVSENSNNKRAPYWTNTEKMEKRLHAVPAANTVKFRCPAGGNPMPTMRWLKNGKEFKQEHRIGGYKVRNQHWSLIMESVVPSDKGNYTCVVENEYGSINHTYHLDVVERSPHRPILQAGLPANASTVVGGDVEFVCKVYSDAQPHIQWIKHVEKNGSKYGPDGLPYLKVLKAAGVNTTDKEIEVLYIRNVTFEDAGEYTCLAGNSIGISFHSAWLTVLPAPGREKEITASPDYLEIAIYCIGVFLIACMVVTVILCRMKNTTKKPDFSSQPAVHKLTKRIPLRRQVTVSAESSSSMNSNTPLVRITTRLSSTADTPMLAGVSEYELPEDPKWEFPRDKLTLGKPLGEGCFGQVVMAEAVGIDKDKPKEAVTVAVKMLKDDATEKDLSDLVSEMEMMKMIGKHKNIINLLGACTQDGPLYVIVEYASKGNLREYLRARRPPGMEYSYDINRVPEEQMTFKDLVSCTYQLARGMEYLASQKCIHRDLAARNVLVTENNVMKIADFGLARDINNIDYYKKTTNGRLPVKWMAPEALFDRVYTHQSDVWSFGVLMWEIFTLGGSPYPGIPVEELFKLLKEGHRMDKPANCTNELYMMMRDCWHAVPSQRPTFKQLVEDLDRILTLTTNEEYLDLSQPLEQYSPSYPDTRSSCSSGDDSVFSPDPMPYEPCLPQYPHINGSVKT
UniProt P22607, whole entry, looked up: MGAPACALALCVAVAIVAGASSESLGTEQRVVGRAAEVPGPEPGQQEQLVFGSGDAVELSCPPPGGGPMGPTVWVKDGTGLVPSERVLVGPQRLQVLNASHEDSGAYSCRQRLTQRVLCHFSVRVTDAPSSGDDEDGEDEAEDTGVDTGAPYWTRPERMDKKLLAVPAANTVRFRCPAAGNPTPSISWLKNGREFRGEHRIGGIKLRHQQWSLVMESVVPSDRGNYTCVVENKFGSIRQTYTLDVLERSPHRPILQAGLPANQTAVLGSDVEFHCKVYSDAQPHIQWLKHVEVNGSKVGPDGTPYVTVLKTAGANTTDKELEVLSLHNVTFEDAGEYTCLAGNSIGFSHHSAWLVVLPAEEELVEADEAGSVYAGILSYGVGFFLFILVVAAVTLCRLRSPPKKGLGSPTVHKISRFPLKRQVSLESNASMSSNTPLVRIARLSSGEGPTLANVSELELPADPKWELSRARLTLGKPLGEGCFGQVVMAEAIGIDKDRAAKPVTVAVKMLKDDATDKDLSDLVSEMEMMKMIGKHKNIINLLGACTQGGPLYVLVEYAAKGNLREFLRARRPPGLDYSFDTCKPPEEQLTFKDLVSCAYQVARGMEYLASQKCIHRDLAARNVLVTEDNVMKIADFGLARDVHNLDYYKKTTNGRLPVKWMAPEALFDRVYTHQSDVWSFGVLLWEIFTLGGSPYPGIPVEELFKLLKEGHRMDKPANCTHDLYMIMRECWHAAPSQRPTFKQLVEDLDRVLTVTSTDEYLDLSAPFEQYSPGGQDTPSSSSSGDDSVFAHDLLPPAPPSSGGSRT
UniProt P36888, whole entry: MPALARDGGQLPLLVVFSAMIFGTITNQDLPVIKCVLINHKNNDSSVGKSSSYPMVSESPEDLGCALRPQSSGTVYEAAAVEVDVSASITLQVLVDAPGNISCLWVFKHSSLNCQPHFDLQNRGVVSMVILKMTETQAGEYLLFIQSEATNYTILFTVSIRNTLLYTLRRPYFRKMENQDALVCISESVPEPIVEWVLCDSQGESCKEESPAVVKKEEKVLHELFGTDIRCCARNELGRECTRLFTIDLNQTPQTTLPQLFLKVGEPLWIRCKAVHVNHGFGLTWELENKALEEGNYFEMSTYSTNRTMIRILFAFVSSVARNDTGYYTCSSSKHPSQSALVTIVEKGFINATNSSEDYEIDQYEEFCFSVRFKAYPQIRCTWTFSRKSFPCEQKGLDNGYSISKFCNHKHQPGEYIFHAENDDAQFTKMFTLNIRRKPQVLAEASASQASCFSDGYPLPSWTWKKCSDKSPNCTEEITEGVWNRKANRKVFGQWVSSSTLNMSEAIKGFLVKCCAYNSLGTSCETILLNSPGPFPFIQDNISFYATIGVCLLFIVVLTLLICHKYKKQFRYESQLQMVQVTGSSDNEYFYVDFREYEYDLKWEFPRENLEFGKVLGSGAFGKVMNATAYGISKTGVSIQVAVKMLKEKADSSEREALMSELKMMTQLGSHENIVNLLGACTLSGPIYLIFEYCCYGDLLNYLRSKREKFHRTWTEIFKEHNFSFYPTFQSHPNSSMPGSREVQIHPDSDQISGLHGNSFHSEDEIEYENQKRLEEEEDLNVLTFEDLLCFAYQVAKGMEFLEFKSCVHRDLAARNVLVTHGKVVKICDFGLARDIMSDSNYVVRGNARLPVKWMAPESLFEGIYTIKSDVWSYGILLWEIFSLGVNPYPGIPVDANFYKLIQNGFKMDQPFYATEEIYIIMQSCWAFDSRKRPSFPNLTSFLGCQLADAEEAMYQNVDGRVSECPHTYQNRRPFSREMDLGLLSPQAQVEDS
UniProt P06241, whole entry, looked up: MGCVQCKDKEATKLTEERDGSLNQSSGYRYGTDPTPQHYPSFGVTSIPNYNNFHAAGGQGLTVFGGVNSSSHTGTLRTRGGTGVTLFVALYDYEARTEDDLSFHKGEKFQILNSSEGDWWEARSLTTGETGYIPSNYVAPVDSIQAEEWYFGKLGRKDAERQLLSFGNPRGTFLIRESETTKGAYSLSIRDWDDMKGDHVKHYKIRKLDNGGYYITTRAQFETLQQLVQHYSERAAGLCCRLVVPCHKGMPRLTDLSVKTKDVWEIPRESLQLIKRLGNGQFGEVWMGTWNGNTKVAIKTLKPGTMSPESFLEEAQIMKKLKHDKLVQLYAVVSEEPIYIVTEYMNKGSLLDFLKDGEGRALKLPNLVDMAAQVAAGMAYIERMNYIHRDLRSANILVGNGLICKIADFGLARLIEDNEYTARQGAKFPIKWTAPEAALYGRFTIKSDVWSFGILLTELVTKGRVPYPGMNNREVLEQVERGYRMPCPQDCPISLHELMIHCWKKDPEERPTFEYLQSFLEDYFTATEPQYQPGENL
UniProt P14616: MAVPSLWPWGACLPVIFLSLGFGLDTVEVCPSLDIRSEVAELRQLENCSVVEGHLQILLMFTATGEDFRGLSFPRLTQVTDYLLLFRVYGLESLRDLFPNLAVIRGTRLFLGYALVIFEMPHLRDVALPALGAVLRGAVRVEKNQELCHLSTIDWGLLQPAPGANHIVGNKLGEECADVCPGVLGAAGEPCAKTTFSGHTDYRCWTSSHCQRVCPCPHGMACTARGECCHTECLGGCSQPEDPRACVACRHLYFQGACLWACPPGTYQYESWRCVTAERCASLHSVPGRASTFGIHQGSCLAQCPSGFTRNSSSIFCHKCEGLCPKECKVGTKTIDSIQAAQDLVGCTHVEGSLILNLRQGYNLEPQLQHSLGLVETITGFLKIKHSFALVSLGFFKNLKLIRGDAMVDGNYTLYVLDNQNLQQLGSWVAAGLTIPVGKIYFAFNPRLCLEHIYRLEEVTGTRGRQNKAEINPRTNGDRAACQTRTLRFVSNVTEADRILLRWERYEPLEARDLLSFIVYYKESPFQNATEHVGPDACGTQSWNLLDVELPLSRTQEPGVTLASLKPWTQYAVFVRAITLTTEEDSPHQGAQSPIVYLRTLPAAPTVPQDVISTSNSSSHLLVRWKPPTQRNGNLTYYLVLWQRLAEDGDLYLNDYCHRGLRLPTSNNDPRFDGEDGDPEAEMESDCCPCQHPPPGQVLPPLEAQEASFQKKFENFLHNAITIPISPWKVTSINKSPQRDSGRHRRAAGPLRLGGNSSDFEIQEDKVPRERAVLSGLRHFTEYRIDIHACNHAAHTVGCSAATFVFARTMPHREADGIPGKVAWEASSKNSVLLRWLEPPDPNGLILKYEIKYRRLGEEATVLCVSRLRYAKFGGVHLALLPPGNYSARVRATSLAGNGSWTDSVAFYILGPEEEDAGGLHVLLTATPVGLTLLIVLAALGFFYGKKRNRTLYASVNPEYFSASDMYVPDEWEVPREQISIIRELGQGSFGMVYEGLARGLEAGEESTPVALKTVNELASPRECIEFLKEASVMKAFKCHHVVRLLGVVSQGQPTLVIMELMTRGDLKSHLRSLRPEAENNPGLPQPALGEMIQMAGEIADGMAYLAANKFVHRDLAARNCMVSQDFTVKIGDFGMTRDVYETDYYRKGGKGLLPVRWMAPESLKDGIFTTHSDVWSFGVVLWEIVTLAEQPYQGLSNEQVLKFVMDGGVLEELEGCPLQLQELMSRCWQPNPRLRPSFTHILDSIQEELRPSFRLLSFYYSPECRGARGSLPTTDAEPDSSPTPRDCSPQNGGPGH

Assays:
Assay in all cases: kinase-Nluc reporter destabilization hit call (1 = scored as downregulated) (binary); higher = compound decreases kinase abundance
Settings in all cases: K562; 2-18 h
ERN1 = ERN1 (UniProt O75460)
FGFR1 = FGFR1 (UniProt P11362)
FGFR2 = FGFR2 (UniProt P21802)
FGFR3 = FGFR3 (UniProt P22607)
FGR = FGR (UniProt P09769)
FLT3 = FLT3 (UniProt P36888)
FYN = FYN (UniProt P06241)
GSK3A = GSK3A (UniProt P49840)
HER2 = HER2 (UniProt P04626)
INSRR = INSRR (UniProt P14616)

| SMILES | kinase-Nluc reporter destabilization hit call (ERN1) | kinase-Nluc reporter destabilization hit call (FGFR1) | kinase-Nluc reporter destabilization hit call (FGFR2) | kinase-Nluc reporter destabilization hit call (FGFR3) | kinase-Nluc reporter destabilization hit call (FGR) | kinase-Nluc reporter destabilization hit call (FLT3) | kinase-Nluc reporter destabilization hit call (FYN) | kinase-Nluc reporter destabilization hit call (GSK3A) | kinase-Nluc reporter destabilization hit call (HER2) | kinase-Nluc reporter destabilization hit call (INSRR) |
| --- | --- | --- | --- | --- | --- | --- | --- | --- | --- | --- |
| COc1cc2c(cc1Nc1ncc(C(N)=O)c(Nc3c(F)cccc3C(F)(F)F)n1)CN(C)CC2 (2.5 µM) | inactive: 0 | inactive: 0 | inactive: 0 | inactive: 0 | inactive: 0 | inactive: 0 | inactive: 0 | inactive: 0 | inactive: 0 | inactive: 0 |
| O=C(ON=C1c2ccccc2-c2nc3ccccc3nc21)c1ccco1 (2.5 µM) | inactive: 0 | inactive: 0 | inactive: 0 | inactive: 0 | inactive: 0 | inactive: 0 | inactive: 0 | inactive: 0 | inactive: 0 | inactive: 0 |
| NCC1CCC(CNc2nc(NCc3ccccc3OC(F)(F)F)ncc2[N+](=O)[O-])CC1 (stereo not given) [PKC-theta inhibitor] (10 µM) | inactive: 0 | active: 1 | inactive: 0 | inactive: 0 | inactive: 0 | inactive: 0 | inactive: 0 | inactive: 0 | inactive: 0 | inactive: 0 |
| Cc1ccc(C(=O)NC2CC2)cc1-n1ncc(C(=O)c2cccc(C#N)c2)c1N [Acumapimod] (10 µM) | inactive: 0 | inactive: 0 | inactive: 0 | inactive: 0 | inactive: 0 | inactive: 0 | inactive: 0 | inactive: 0 | inactive: 0 | inactive: 0 |
| COc1c(O)cc2oc(-c3ccc(O)cc3)cc(=O)c2c1O [Hispidulin] (10 µM) | inactive: 0 | inactive: 0 | inactive: 0 | inactive: 0 | inactive: 0 | inactive: 0 | inactive: 0 | inactive: 0 | inactive: 0 | inactive: 0 |
| CN(C)c1ccc(-c2nc3ncc(Cl)c(N4CCN(CC(=O)Nc5nccs5)CC4)c3[nH]2)cc1 (2 µM) | inactive: 0 | inactive: 0 | inactive: 0 | inactive: 0 | inactive: 0 | inactive: 0 | inactive: 0 | inactive: 0 | inactive: 0 | inactive: 0 |
| COc1ccc(-c2cc(=O)c3c(OC)cc(OC)c(OC)c3o2)cc1 [6-Demethoxytangeretin] (10 µM) | inactive: 0 | inactive: 0 | inactive: 0 | inactive: 0 | inactive: 0 | inactive: 0 | inactive: 0 | inactive: 0 | inactive: 0 | inactive: 0 |
| COc1cc(-c2cc(-c3ccc(N4CCNCC4)cc3)cnc2C)cc(OC)c1OC (10 µM) | inactive: 0 | inactive: 0 | inactive: 0 | inactive: 0 | inactive: 0 | inactive: 0 | inactive: 0 | inactive: 0 | inactive: 0 | inactive: 0 |
| O=C(NCCO)c1cc(C(=O)NCCO)cc(C(=O)NCCO)c1 (10 µM) | inactive: 0 | inactive: 0 | inactive: 0 | inactive: 0 | inactive: 0 | inactive: 0 | inactive: 0 | inactive: 0 | inactive: 0 | inactive: 0 |
| COC(=O)Nc1ccc(-c2nc(N3CCOCC3)c3cnn(C4CCN(Cc5cccnc5)CC4)c3n2)cc1 (10 µM) | inactive: 0 | inactive: 0 | inactive: 0 | inactive: 0 | inactive: 0 | inactive: 0 | inactive: 0 | inactive: 0 | inactive: 0 | inactive: 0 |
| C=CC(=O)Nc1cccc(Oc2nc(Nc3ccc(N4CCN(C)CC4)c(F)c3)nc3[nH]ccc23)c1 [Avitinib (maleate)] (2.5 µM) | inactive: 0 | inactive: 0 | inactive: 0 | inactive: 0 | inactive: 0 | inactive: 0 | inactive: 0 | inactive: 0 | inactive: 0 | inactive: 0 |
| NCCOc1ccc(Cl)cc1C(=O)Nc1ccc([N+](=O)[O-])cc1Cl [HJC0152 hydrochloride] (2 µM) | inactive: 0 | inactive: 0 | inactive: 0 | inactive: 0 | inactive: 0 | inactive: 0 | inactive: 0 | inactive: 0 | inactive: 0 | inactive: 0 |
| C=C1CCC[C@]2(C)C=C3OC(=O)C(C)=C3C[C@@H]12 [Atractylenolide I] (10 µM) | inactive: 0 | inactive: 0 | inactive: 0 | inactive: 0 | inactive: 0 | inactive: 0 | inactive: 0 | inactive: 0 | inactive: 0 | inactive: 0 |
| Cn1c(CNc2cccc(C(=O)NCc3ccccc3C(F)(F)F)c2)nnc1-c1ccncc1 (10 µM) | inactive: 0 | inactive: 0 | inactive: 0 | inactive: 0 | inactive: 0 | inactive: 0 | inactive: 0 | inactive: 0 | inactive: 0 | inactive: 0 |
| Nc1ncnc2c1nc(Br)n2[C@@H]1O[C@@H]2COP(=O)(O)O[C@H]2[C@H]1O [8-Bromo-cAMP sodium salt] (10 µM) | inactive: 0 | inactive: 0 | inactive: 0 | inactive: 0 | inactive: 0 | inactive: 0 | inactive: 0 | inactive: 0 | inactive: 0 | inactive: 0 |
| O=Nc1c(-c2c(O)[nH]c3cc(Br)ccc23)[nH]c2ccccc12 [GSK 3 Inhibitor IX] (2.5 µM) | inactive: 0 | inactive: 0 | inactive: 0 | inactive: 0 | inactive: 0 | inactive: 0 | inactive: 0 | inactive: 0 | inactive: 0 | inactive: 0 |
| CN1CCC(CNc2ccc3ncc(-c4cccc(OC(F)(F)F)c4)n3n2)CC1 (2.5 µM) | inactive: 0 | inactive: 0 | inactive: 0 | inactive: 0 | inactive: 0 | inactive: 0 | inactive: 0 | inactive: 0 | inactive: 0 | inactive: 0 |
| CC(C)[C@H](CO)Nc1nc(Nc2cccc(Cl)c2)c2ncn(C(C)C)c2n1 [Purvalanol A] (10 µM) | inactive: 0 | inactive: 0 | inactive: 0 | inactive: 0 | inactive: 0 | inactive: 0 | inactive: 0 | inactive: 0 | inactive: 0 | inactive: 0 |
| Cc1cnc(NC(=O)c2cc(Oc3cnc(C(=O)N(C)C)nc3)c3cc(C)oc3c2)cn1 (10 µM) | inactive: 0 | inactive: 0 | inactive: 0 | inactive: 0 | inactive: 0 | inactive: 0 | inactive: 0 | inactive: 0 | inactive: 0 | inactive: 0 |
| Nc1[nH]nc2nc(-c3ccc(NS(=O)(=O)c4cc(Cl)ccc4Cl)cc3)cnc12 (10 µM) | inactive: 0 | inactive: 0 | inactive: 0 | inactive: 0 | inactive: 0 | inactive: 0 | inactive: 0 | inactive: 0 | inactive: 0 | inactive: 0 |
| CCn1c(-c2nonc2N)nc2c(C#CC(C)(C)O)ncc(OC[C@H]3CCCNC3)c21 (10 µM) | inactive: 0 | inactive: 0 | inactive: 0 | inactive: 0 | inactive: 0 | inactive: 0 | inactive: 0 | inactive: 0 | inactive: 0 | inactive: 0 |
| Cc1cc([C@@H](C)Nc2ccccc2C(=O)O)c2nc(N3CCOCC3)cc(=O)n2c1 (10 µM) | inactive: 0 | inactive: 0 | inactive: 0 | inactive: 0 | inactive: 0 | inactive: 0 | inactive: 0 | inactive: 0 | inactive: 0 | inactive: 0 |
| Cc1cc(C(=O)NOCCO)c(Nc2ccc(I)cc2F)n(C)c1=O (10 µM) | inactive: 0 | inactive: 0 | inactive: 0 | inactive: 0 | inactive: 0 | inactive: 0 | inactive: 0 | inactive: 0 | inactive: 0 | inactive: 0 |
| Cc1cccc(/C=N/Nc2cc(N3CCOCC3)n3nc(-c4ccncc4)cc3n2)c1 (10 µM) | inactive: 0 | inactive: 0 | inactive: 0 | inactive: 0 | inactive: 0 | inactive: 0 | inactive: 0 | inactive: 0 | inactive: 0 | inactive: 0 |
| Cn1cc(-c2cc(Oc3cc(F)c(NC(=O)C4(C(=O)Nc5ccccc5)CC4)cc3F)ccn2)cn1 (2.5 µM) | inactive: 0 | inactive: 0 | inactive: 0 | inactive: 0 | inactive: 0 | inactive: 0 | inactive: 0 | inactive: 0 | inactive: 0 | inactive: 0 |
| O=C1NC(=O)/C(=C\c2c[nH]c(=O)c(-c3ccc(N4CCNCC4)nc3)c2)S1 [Protein kinase inhibitors 1 hydrochloride] (10 µM) | inactive: 0 | inactive: 0 | inactive: 0 | inactive: 0 | inactive: 0 | inactive: 0 | inactive: 0 | inactive: 0 | inactive: 0 | inactive: 0 |
| N#Cc1ccc2ncnc(NCCc3ccccc3)c2c1 [Senexin A] (10 µM) | inactive: 0 | inactive: 0 | inactive: 0 | inactive: 0 | inactive: 0 | inactive: 0 | inactive: 0 | inactive: 0 | inactive: 0 | inactive: 0 |
| CCNC(=O)C#Cc1ccc2c(C(=Nc3ccc(CN(C)C)cc3)c3ccccc3)c(O)[nH]c2c1 (2.5 µM) | inactive: 0 | inactive: 0 | inactive: 0 | inactive: 0 | inactive: 0 | inactive: 0 | inactive: 0 | inactive: 0 | inactive: 0 | inactive: 0 |
| CC1(N)CCN(c2cccnc2NC(=O)c2nc(-c3ncccc3C(F)(F)F)cnc2N)CC1 [Darovasertib] (10 µM) | inactive: 0 | inactive: 0 | inactive: 0 | inactive: 0 | inactive: 0 | inactive: 0 | inactive: 0 | inactive: 0 | inactive: 0 | inactive: 0 |

Some values from the results shown.
Cn1c(CNc2cccc(C(=O)NCc3ccccc3C(F)(F)F)c2)nnc1-c1ccncc1 (10 µM) | kinase-Nluc reporter destabilization hit call (FGR): inactive: 0
O=C1NC(=O)/C(=C\c2c[nH]c(=O)c(-c3ccc(N4CCNCC4)nc3)c2)S1 [Protein kinase inhibitors 1 hydrochloride] (10 µM) | kinase-Nluc reporter destabilization hit call (GSK3A): inactive: 0
